{"sequences": {"note": "The chains behind the UniProt entries cited, without tags or fusion partners.", "UniProt P21707": "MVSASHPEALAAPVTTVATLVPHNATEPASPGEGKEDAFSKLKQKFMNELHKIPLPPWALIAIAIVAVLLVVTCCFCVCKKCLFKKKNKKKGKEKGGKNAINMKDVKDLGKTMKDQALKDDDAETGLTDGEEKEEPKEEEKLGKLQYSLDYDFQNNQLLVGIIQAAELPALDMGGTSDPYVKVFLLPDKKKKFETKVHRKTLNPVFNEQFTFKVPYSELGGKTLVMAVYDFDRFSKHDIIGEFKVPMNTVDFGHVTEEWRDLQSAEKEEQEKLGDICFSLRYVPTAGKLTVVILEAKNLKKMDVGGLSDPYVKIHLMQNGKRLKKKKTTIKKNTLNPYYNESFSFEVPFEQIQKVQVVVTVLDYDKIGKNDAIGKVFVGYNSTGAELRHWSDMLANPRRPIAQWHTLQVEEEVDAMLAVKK"}, "source": "paper PMC10284394", "target": "T1, GST-Rab26WT (UniProt Q9ULW5)", "T1 sequence": "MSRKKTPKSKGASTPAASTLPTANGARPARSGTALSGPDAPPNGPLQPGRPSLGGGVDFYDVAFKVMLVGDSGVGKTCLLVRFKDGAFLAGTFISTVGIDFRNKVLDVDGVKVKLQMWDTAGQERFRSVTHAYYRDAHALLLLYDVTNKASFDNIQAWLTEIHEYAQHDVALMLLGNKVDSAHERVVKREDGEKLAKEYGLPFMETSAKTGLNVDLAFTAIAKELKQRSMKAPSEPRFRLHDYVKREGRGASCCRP", "experiment": "affinity purification with mass spectrometry; large-scale GST pull-down with GST-Rab26QL, Rab26TN and Rab26WT from rat brain tissue lysate (legend: mouse liver lysate); SDS-PAGE, silver staining, LC-MS; only the target purified", "note": "No constants are given. Whether binding was seen depends on the method and setting. In cells and extracts the contact can be indirect. These calls come from enrichment with a bait or labelling near it, and not all partners need be listed. Sequences can lack the tags named with a protein.", "data": [{"substance": "endogenous Synaptotagmin-1 (tissue lysate of the large-scale pull-down) (from UniProt P21707 1-421)", "values": [{"measurement": "binding", "result": "binds"}]}]}
